Results are given in words; binding and its absence hold for the method and conditions named. Binding seen in cells or lysates may run through a third protein. Some entries that bind do so weakly or less than the wild type. Sequences can lack the tags named with a protein.
T1: Tspan-8·GFP (transiently transfected) (UniProt P19075)
T1 sequence: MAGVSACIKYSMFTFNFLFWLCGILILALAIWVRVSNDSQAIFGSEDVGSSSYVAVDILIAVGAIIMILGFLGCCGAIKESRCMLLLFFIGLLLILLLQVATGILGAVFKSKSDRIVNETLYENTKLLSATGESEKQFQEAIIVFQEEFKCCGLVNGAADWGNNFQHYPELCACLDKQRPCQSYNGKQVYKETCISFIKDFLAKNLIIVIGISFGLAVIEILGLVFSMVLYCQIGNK

The chains behind the UniProt entries cited, without tags or fusion partners.
UniProt P61764: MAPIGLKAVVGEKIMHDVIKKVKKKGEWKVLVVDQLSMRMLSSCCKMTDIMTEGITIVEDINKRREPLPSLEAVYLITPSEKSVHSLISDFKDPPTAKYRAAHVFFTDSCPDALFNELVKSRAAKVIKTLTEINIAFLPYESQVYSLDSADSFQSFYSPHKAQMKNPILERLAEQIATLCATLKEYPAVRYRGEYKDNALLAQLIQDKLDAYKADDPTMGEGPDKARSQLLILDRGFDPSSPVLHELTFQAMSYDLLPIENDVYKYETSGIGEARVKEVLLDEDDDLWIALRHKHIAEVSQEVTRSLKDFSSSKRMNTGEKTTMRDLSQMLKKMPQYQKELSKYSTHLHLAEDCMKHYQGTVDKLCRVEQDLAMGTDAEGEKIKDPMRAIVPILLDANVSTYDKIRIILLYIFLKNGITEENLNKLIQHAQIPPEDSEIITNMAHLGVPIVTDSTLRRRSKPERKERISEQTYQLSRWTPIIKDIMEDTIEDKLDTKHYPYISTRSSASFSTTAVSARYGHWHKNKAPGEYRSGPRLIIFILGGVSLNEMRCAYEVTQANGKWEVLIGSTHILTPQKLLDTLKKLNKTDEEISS

T2: Tspan-8·GFP (tetraspanin-8 tagged with sfGFP at the endogenous TSPAN8 locus) (human (endogenous in HT29-N2)) (UniProt P19075)
T2 sequence: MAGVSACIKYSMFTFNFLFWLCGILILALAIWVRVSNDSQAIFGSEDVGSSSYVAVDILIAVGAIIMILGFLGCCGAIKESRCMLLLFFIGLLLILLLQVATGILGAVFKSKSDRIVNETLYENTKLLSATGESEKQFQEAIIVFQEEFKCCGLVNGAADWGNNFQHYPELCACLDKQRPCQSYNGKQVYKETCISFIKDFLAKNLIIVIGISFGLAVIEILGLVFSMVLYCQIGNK

T3: Vesicle-associated membrane protein 8 (endogenous) (human (endogenous in HT29-N2)) (UniProt Q9BV40)
T3 sequence: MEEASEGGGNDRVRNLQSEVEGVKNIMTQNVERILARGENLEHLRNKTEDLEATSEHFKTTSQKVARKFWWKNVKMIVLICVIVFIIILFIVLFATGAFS


Assays:
[1] = target: T1, Tspan-8·GFP (transiently transfected); experiment: co-IP; GFP immunoprecipitation from cells transiently co-transfected with Tspan-8·GFP and Stx2·FLAG; western blot; controls no transfection and Tspan-8·RFP transfection
[2] = target: T2, Tspan-8·GFP (tetraspanin-8 tagged with sfGFP at the endogenous TSPAN8 locus) (human (endogenous in HT29-N2)); experiment: co-IP; GFP-Trap agarose IP of Tspan-8·GFP (WT or d234-237) from lysates of differentiated HT29-N2 cells; lysis buffer Tris 50 mM, NaCl 150 mM, pH 7.3, Triton X-100 1%; 60 min at 4 °C; western blot; controls RFP immunoprecipitation or WT HT29-N2 cells
[3] = target: T3, Vesicle-associated membrane protein 8 (endogenous) (human (endogenous in HT29-N2)); experiment: co-IP; VAMP-8 immunoprecipitation from lysates of HT29-N2 cells genetically modified to express Tspan-8·GFP; western blot; uncoated beads as control

Molecule	binding [1]	other results
Munc18-1 (endogenous) (from UniProt P61764 1-594)	no binding	–
syntaxin-3 (endogenous) (protein, UniProt Q13277 1-289) MKDRLEQLKAKQLTQDDDTDAVEIAIDNTAFMDEFFSEIEETRLNIDKISEHVEEAKKLYSIILSAPIPEPKTKDDLEQLTTEIKKRANNVRNKLKSMEKHIEEDEVRSSADLRIRKSQHSVLSRKFVEVMTKYNEAQVDFRERSKGRIQRQLEITGKKTTDEELEEMLESGNPAIFTSGIIDSQISKQALSEIEGRHKDIVRLESSIKELHDMFMDIAMLVENQGEMLDNIELNVMHTVDHVEKARDETKKAVKYQSQARKKLIIIIVLVVVLLGILALIIGLSVGLN	–	binding [2]: binds
Tspan-8·GFP (tetraspanin-8 tagged with sfGFP at the endogenous TSPAN8 locus) (protein, UniProt P19075 1-237) MAGVSACIKYSMFTFNFLFWLCGILILALAIWVRVSNDSQAIFGSEDVGSSSYVAVDILIAVGAIIMILGFLGCCGAIKESRCMLLLFFIGLLLILLLQVATGILGAVFKSKSDRIVNETLYENTKLLSATGESEKQFQEAIIVFQEEFKCCGLVNGAADWGNNFQHYPELCACLDKQRPCQSYNGKQVYKETCISFIKDFLAKNLIIVIGISFGLAVIEILGLVFSMVLYCQIGNK	–	binding [3]: no binding
Munc18-2 (endogenous) (protein, UniProt Q15833 1-593) MAPSGLKAVVGEKILSGVIRSVKKDGEWKVLIMDHPSMRILSSCCKMSDILAEGITIVEDINKRREPIPSLEAIYLLSPTEKSVQALIKDFQGTPTFTYKAAHIFFTDTCPEPLFSELGRSRLAKVVKTLKEIHLAFLPYEAQVFSLDAPHSTYNLYCPFRAEERTRQLEVLAQQIATLCATLQEYPAIRYRKGPEDTAQLAHAVLAKLNAFKADTPSLGEGPEKTRSQLLIMDRAADPVSPLLHELTFQAMAYDLLDIEQDTYRYETTGLSEAREKAVLLDEDDDLWVELRHMHIADVSKKVTELLRTFCESKRLTTDKANIKDLSQILKKMPQYQKELNKYSTHLHLADDCMKHFKGSVEKLCSVEQDLAMGSDAEGEKIKDSMKLIVPVLLDAAVPAYDKIRVLLLYILLRNGVSEENLAKLIQHANVQAHSSLIRNLEQLGGTVTNPGGSGTSSRLEPRERMEPTYQLSRWTPVIKDVMEDAVEDRLDRNLWPFVSDPAPTASSQAAVSARFGHWHKNKAGIEARAGPRLIVYVMGGVAMSEMRAAYEVTRATEGKWEVLIGSSHILTPTRFLDDLKALDKKLEDIALP	no binding	–
